Source: PubChem BioAssay AID504467 (National Center for Advancing Translational Sciences (NCATS), 2011)
Screen size: about 330,000 compounds; about 7,700 (2.3%) were called active. The inconclusive results got no clear call from the source; some entries with a clear call stand among them for comparison. Calls follow the shape of the dose curve; as a rule, active = well fitted inhibition curve with a large enough effect; inconclusive = small, poorly fitted or top-dose-only effect, or effect the other way; inactive = flat fitted curve, though single readings scatter. Potencies of inconclusive entries are doubtful fits and often do not repeat.

Assay: qHTS screen for small molecules that inhibit ELG1-dependent DNA repair in human embryonic kidney (HEK293T) cells expressing luciferase-tagged ELG1; also: nearly all actives have a fitted effect of over 55% in size
Conditions: HEK293T ELG1-luciferase reporter, luminescence, 16 h, DNA damage induced by 5-fluorouridine; series mostly up to 46.1 µM
Outline: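 Quantitative HTS, concentration-response format. 2,000 cells/well co-treated with 5-fluorouridine and compound, 16 hr in 5% CO2 at 37 °C; ONE-Glo luminescence read after 30 min.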
Potency is read from the fitted curve at half-maximal effect.

SMILES	Potency
CN1CCN(S(=O)(=O)c2cccc(C(=O)Nc3nccs3)c2)CC1	inconclusive: 18.3 µM [inhibitor, single point]
O=C(Nc1ccccc1Cl)c1ccc2ccccc2c1	inactive
COc1ccccc1CNC(=O)CCCOc1cc(=O)n(C)c2ccccc12	inconclusive: 20.6 µM [activator, partial curve]
c1cc2c(cc1Oc1nc(N3CCOCC3)nc(N3CCOCC3)n1)OCO2	inconclusive: 7.31 µM [inhibitor, partial curve, poor fit]
Cc1nc(C(Cl)(Cl)Cl)nc2[nH]ccc(=O)c12	inactive
CC12CCC(C(=O)NCc3ccc(F)cc3)(OC1=O)C2(C)C (centres undefined)	inconclusive: 2.31 µM [activator, partial curve, poor fit]
O=C(Nc1nc2ccccc2s1)C1CCCO1 (centres undefined)	inconclusive: 4.11 µM [activator, full curve]
O=c1c(Br)c(N2CCOCC2)cnn1-c1ccccc1	inconclusive: 9.2 µM [activator, partial curve]
COc1cc(/C=N/NC(=O)c2ccccn2)ccc1OC(=O)c1ccccc1Br	inactive
Cc1cccc2sc(N(CCCN(C)C)C(=O)c3cc4ccccc4oc3=O)nc12	inconclusive: 18.4 µM [activator, single point]
CCOC(=O)N/N=C/c1ccc(N2CCOCC2)s1	inconclusive: 23.1 µM [activator, single point]
CCN1CCN(C(=O)c2ccccc2N(Cc2ccccc2)S(C)(=O)=O)CC1	inactive
CCOc1ccc(N(CC(=O)Nc2cccc(N(C)S(C)(=O)=O)c2)S(=O)(=O)c2ccccc2)cc1	active: 13 µM
COc1ccc(C(=O)N/C(=C\c2cccc3ccccc23)C(=O)N2CCN(C)CC2)cc1	inconclusive: 29.1 µM [inhibitor, partial curve, poor fit]
S=C(NCCc1ccccc1)N1CCn2cccc2C1c1ccncc1 (centres undefined)	inconclusive: 20.6 µM [inhibitor, single point]
O=C(NCc1ccco1)c1cc2n(n1)C(C(F)(F)F)CC(c1ccc(Cl)c(Cl)c1)N2 (centres undefined)	inactive
O=C(NCc1ccccn1)Nc1cccc(Cl)c1	inconclusive: 18.4 µM [activator, partial curve]
Cn1c(=O)oc2cc(S(=O)(=O)N3CCC(C(=O)NCc4ccccc4Cl)CC3)ccc21	inconclusive: 20.6 µM [activator, single point]
Cc1ccc(-c2cc(-c3ccc(C)cc3O)[nH]n2)cc1	inconclusive: 9.2 µM [activator, partial curve]
C=CCN1C(=O)N(CC=C)c2cccc3cccc1c23	inactive
O=C(Nc1ccc(C(=O)c2ccccc2)cc1)c1ccccc1	inconclusive: 23.1 µM [activator, partial curve]
N#CC(Cc1cccc(CC(C#N)(c2ccccc2)c2ccccc2)c1)(c1ccccc1)c1ccccc1	inactive
CCCCCC(=O)N1CC2(CC(c3cccc(NC(=O)CC(c4ccccc4)c4ccccc4)c3)=NO2)C[C@@H]1C(N)=O (some centres undefined)	inconclusive: 29.1 µM [inhibitor, single point]

SMILES	Potency
COc1ccc(C(=O)NCCC2=CCCCC2)cc1[N+](=O)[O-]	inconclusive: 9.2 µM [activator, partial curve]
Cc1ccsc1CN(C)C(=O)CN1C(=O)NC(c2ccccc2)(c2ccccc2)C1=O	inactive
N=c1ccn(Cc2ccc(F)cc2)cc1	inconclusive: 20.6 µM [inhibitor, single point]
COc1cc(/C=N/NC(=O)c2ccc(CN3c4cccc5cccc(c45)S3(=O)=O)cc2)cc(OC)c1O	active: 3.26 µM
Cc1c(/C=N/n2cnnc2)c2ccccc2n1CCOc1ccc(Cl)cc1	inconclusive: 29.1 µM [inhibitor, single point]
O=C(NN=Cc1ccc(O)cc1O)c1ccccc1NS(=O)(=O)c1cccs1	inactive
CC(C)(C)n1cnc2cc(NC(=O)c3cccs3)ccc21	inconclusive: 4.61 µM [activator, partial curve]
CC1=C/C(=N\OS(=O)(=O)c2ccccc2)C(C)=CC1=O	inconclusive: 29.1 µM [inhibitor, single point]
Cc1ccc(N(CC(=O)NCc2ccc3c(c2)OCO3)C(=O)c2csnn2)cc1	inconclusive: 16.4 µM [activator, partial curve, poor fit]
Cc1ccc2cccc(Oc3nnnn3-c3ccccc3)c2n1	inactive
c1cncc(CNc2ncnc3sc4c(c23)CCCC4)c1	inconclusive: 20.6 µM [inhibitor, single point]
CC(C)NC(=O)CCCc1ccccc1	inconclusive: 18.4 µM [activator, partial curve]
CCn1c(=O)cc(OCC(=O)O)c2ccccc21	inactive
OC(CNCC1(N2CCCCC2)CCCCC1)COc1ccc(Cl)cc1Cl (centres undefined)	inconclusive: 18.3 µM [inhibitor, single point]
Cc1cccc(S(=O)(=O)NC2CCCCCCC2)c1	inconclusive: 20.6 µM [inhibitor, partial curve, poor fit]
CCc1ccc(N2CC(C(=O)Nc3ccc4c(c3)OCCO4)CC2=O)cc1 (centres undefined)	inconclusive: 16.4 µM [activator, single point]
O=C1NN(c2ccc(F)cc2)C(=O)/C1=C\c1cnn(-c2ccccc2)c1	inactive
Cc1ccc(C)c(OCc2nc3ccc(S(=O)(=O)Nc4c(C)n(C)n(-c5ccccc5)c4=O)cc3[nH]2)c1	inconclusive: 18.3 µM [inhibitor, single point]
CCOC(=O)c1sc2nc(N3CCOCC3)c3c(c2c1N)CCN(Cc1ccccc1)C3	inconclusive: 20.6 µM [inhibitor, partial curve, poor fit]
C=CCN(C(=O)CN1CCCCC1)c1nc(-c2ccccc2)cs1	inactive
Cc1ccccc1CNC(=O)c1ccc(Cl)c([N+](=O)[O-])c1	inactive
CN(C)c1nc(N)nc(CSc2ccccn2)n1	inconclusive: 9.2 µM [activator, partial curve]
COc1ccc(CCNS(=O)(=O)c2ccc([N+](=O)[O-])cc2)cc1OC	inactive

2 of the compounds above, with each value named:
O=C(NN=Cc1ccc(O)cc1O)c1ccccc1NS(=O)(=O)c1cccs1
  Potency: inactive
Cc1ccc(C)c(OCc2nc3ccc(S(=O)(=O)Nc4c(C)n(C)n(-c5ccccc5)c4=O)cc3[nH]2)c1
  Potency: inconclusive: 18.3 µM [inhibitor, single point]

Remaining list, next part

SMILES	Potency
Cc1ccc2nc(Cl)c(/C=C/C(=O)c3ccco3)cc2c1	inconclusive: 16.4 µM [activator, partial curve]
O=C(Nc1ccc(C(F)(F)F)cc1[N+](=O)[O-])O[C@H]1[C@H](Cc2ccccc2)NS(=O)(=O)[C@H]2C[C@@H]3C=C[C@]12O3	inconclusive: 29.1 µM [inhibitor, single point]
COC(=O)Nc1ccc(S(=O)(=O)N2CCCc3cccc(O)c32)cc1	active: 18.3 µM
O=C(Nc1cc(Sc2ccccn2)cc([N+](=O)[O-])c1)c1ccc([N+](=O)[O-])cc1	inconclusive: 35.5 µM [inhibitor, single point]
O=C(Nc1ccccc1F)c1ccco1	inconclusive: 25.9 µM [activator, single point]
Cc1ccc(CNC(=O)C(=O)NCC2OCCN2S(=O)(=O)c2ccc3c(c2)OCCO3)cc1 (centres undefined)	inconclusive: 29.1 µM [inhibitor, single point]
Cc1ccc(NC(=O)c2ccc(=O)[nH]c2)cc1S(=O)(=O)N1CCCCC1	inactive
Cc1cc(C)nc(N/N=C/c2ccccc2OCc2cccc(Br)c2)n1	active: 20.6 µM
Cc1ccc(C(=O)CSc2nc(C)cc(=O)[nH]2)cc1	inconclusive: 10 µM [activator, partial curve, poor fit]
CC(C)(C)c1csc(NC(=O)c2cccs2)n1	inconclusive: 2.91 µM [activator, full curve]
COc1ccc(/C=C2\SC(=O)N(CCC(=O)N3CCN(C)CC3)C2=O)cc1	inconclusive: 18.3 µM [activator, partial curve, poor fit]
O=[N+]([O-])c1ccc2oc(-c3ccccc3)nc2c1	inconclusive: 10.3 µM [activator, partial curve]
CCOC(=O)C1=C(CN2CC(C)CC(C)C2)NC(=O)NC1c1ccc2c(c1)OCO2 (centres undefined)	inconclusive: 29.1 µM [inhibitor, single point]
Cc1ccc(NC(=O)CCCn2nc(C)c3c(C)n(-c4ccccc4)nc3c2=O)cc1C	inactive
O=C(CCOc1ccccc1)Nc1ccnn1C1CCN(C(=O)CCC(F)(F)F)CC1	inactive
Cc1onc(-c2c(Cl)cccc2Cl)c1C(=O)N1CCN(c2ccc(F)cc2)CC1	inactive
COc1ccc(/C(N)=N/OC(=O)c2cccc([N+](=O)[O-])c2)cc1	inconclusive: 6.51 µM [activator, partial curve]
O=C(C1CN(C(=O)c2cc3cc(Cl)ccc3o2)c2ccccc2O1)N1CCCCC1 (centres undefined)	inconclusive: 20.6 µM [inhibitor, single point]
COc1cc(C(=O)N[C@H](C(=O)Nc2nnc(C3CC3)s2)C(C)C)cc(OC)c1OC	inconclusive: 6.51 µM [inhibitor, single point]
O=C1C(=Cc2cccn2-c2ccccc2)C(=O)c2ccccc21	inconclusive: 29.1 µM [activator, single point]
CCc1nnc(NC(=O)c2nc(S(=O)(=O)Cc3cccc(C)c3)ncc2Cl)s1	inconclusive: 29.1 µM [inhibitor, single point]
COc1ccc(-n2nnnc2SCC(=O)N2CCOCC2)cc1	inconclusive: 29.1 µM [activator, single point]
NC(=O)CSc1oc(-c2ccco2)nc1S(=O)(=O)c1ccc(Br)cc1	inactive
